Values joined by “and” are separate entries in the source; they are usually repeats but may differ in a detail not shown here. Identical values can stand only once. Among all 300,000 compounds or so, about 5,400 (1.8%) were called active. The inconclusive results got no clear call from the source; some entries with a clear call stand among them for comparison. Calls come from the whole dose curve; tested in HEK293 cells. Potencies beside an inconclusive call are fits to weak or partial responses and may not hold up.
Experiment: qHTS for inhibitors of binding or entry into cells for Marburg Virus
Settings: Marburg virus pseudotyped entry inhibition, cell reporter; activity change, negative = inhibition: at 37.8 µM (top of the series) unless noted
% is set by controls: 0 for no effect and ±100 for the full control effect; potency is the fitted concentration of half-maximal effect.

| Compound | activity change, negative = inhibition | Potency |
| --- | --- | --- |
| CSc1nc(N)c2c(C)c(C)sc2n1 | inactive: -13.7% | – |
| COC(=O)c1ccc(CNC(=O)C2CCC(=O)N(CCN3CCOCC3)C2)cc1 (centres undefined) | inactive: 25.1% | – |
| O=C(Oc1ccc(Cl)c2cccnc12)N1CCOCC1 | inactive: 0.978% | – |
| Brc1ccc2[nH]c3nc(SCCN4CCOCC4)nnc3c2c1 | – | inactive and inconclusive: 20 µM [inhibitor, partial curve, poor fit] |
| CC1(C)CC(=O)C2=C(C1)NC(=O)C21C(C(=O)OC(C)(C)C)=C(N)Oc2ccc(Br)cc21 (centres undefined) | – | inconclusive: 29.1 µM [inhibitor, single point] |
| CCCCCCCNC1=CC(=O)CC(c2ccccc2)C1 (centres undefined) | – | inconclusive: 14.6 µM [inhibitor, partial curve, poor fit] |
| CCC1CCCCN1C(=O)COC(=O)c1cc2ccccc2cc1O (centres undefined) | inactive: -0.232% | – |
| Clc1cccc(CNCCc2c[nH]c3ccccc23)c1 | – | inconclusive: 17.8 µM [inhibitor, single point] |
| Cc1csc(SCC(=O)Nc2sc3c(c2C#N)CCC3)n1 | – | inconclusive: 35.5 µM [inhibitor, single point] |
| Cc1ccccc1-n1nnnc1SCc1ncc(-c2ccccc2)o1 | – | inconclusive: 35.5 µM [inhibitor, single point] |
| O=C(Cc1ccc(Br)cc1)N1CCN(c2ccc(F)cc2)CC1 | inactive: -20.8% | – |
| O=c1cc(CN2CCN(S(=O)(=O)c3cccc(Cl)c3)CC2)c2ccc(O)cc2o1 | – | inconclusive: 10 µM [inhibitor, partial curve, poor fit] |
| CCNC(=S)N1CCN(S(=O)(=O)c2ccc(Cl)s2)CC1 | – | inconclusive: 12.6 µM [inhibitor, partial curve, poor fit] |
| O=C1C=C(N2CCCCC2)c2ccccc2C1=O | – | inconclusive: 4.47 µM [inhibitor, full curve, poor fit] |
| Cc1ccc(C2c3c(-c4cc(C)ccc4O)n[nH]c3C(=O)N2Cc2ccco2)cc1 (centres undefined) | – | inconclusive: 35.5 µM [inhibitor, single point] |
| Cc1ccc(-n2c(C)cc(C(=O)COc3c(CO)cc(F)cc3CO)c2C)cc1C | – | inconclusive: 35.5 µM [inhibitor, single point] |
| Cc1oc2cc3c(C(=O)N4CCCCC4)c(C)oc3cc2c1C(=O)N1CCCCC1 | inactive: 2.39% | – |
| Cc1cc(S(=O)(=O)NCC(C)C)ccc1OCC(=O)N1CCN(Cc2ccccc2)CC1 | – | inconclusive: 35.5 µM [inhibitor, single point] |
| O=C(CNC(=O)c1sc2ccccc2c1Cl)NCc1ccccc1 | – | inconclusive: 3.98 µM [inhibitor, full curve] |
| CCOC(=O)Cc1csc(N/C(=N/S(=O)(=O)c2cc(Br)ccc2OCC)c2ccccc2)n1 | – | inconclusive: 0.0891 µM [activator, full curve, poor fit] |
| Cc1cc([N+](=O)[O-])cnc1N1CCOCC1 | – | inconclusive: 2.51 µM [inhibitor, partial curve, poor fit] |
| Oc1ccc(Nc2nc3ccccc3n3cnnc23)cc1 | – | inconclusive: 3.16 µM [activator, full curve, poor fit] |

| Compound | activity change, negative = inhibition | Potency |
| --- | --- | --- |
| Cc1cccc(Cn2c(=O)n(Cc3ccc(C(=O)NC4CCN(Cc5ccccc5)CC4)cc3)c(=O)c3ccccc32)c1 | – | inconclusive: 3.98 µM [inhibitor, single point] |
| CC(c1ccccc1)n1c(Br)nc2c1c(=O)[nH]c(=O)n2C (centres undefined) | inactive: -2.9% | – |
| Cc1ccc(/C=N/NC(=O)NC23CC4CC(CC(C4)C2)C3)o1 | inactive: -16.4% | – |
| COc1ccc(Cn2ccnc2)cc1[N+](=O)[O-] | – | inconclusive: 18.4 µM [activator, single point] |
| Cc1cc(C)c(/C=C(\C#N)S(=O)(=O)c2ccccc2)[nH]1 | – | inconclusive: 5.62 µM [inhibitor, single point] |
| CCOc1ccc(CC(=O)Nc2c(C(=O)Nc3ccccc3)oc3ccccc23)cc1OCC | – | inconclusive: 29.1 µM [inhibitor, single point] |
| Cc1nc2c([nH]c3ccccc32)c(=O)n1N | inactive: -5.6% [at 46.1 µM] | – |
| O=C(NCCCn1ccnc1)c1ccc(N2CCCCCC2)c([N+](=O)[O-])c1 | – | inconclusive: 22.4 µM [inhibitor, partial curve, poor fit] |
| CCC(Sc1nc(-c2ccccc2)cc(=O)[nH]1)C(=O)O (centres undefined) | inactive: 4.4% | – |
| CCN(CC1COc2ccccc2O1)C(=O)c1ccc(Cl)c(S(=O)(=O)N2CC(C)OC(C)C2)c1 (centres undefined) | – | inconclusive: 11.2 µM [inhibitor, partial curve, poor fit] |
| Fc1ccc(OCc2nn3c(Cn4nnc5ccccc54)nnc3s2)cc1 | – | inconclusive: 6.31 µM [inhibitor, partial curve, poor fit] |
| COc1cccc(Sc2ccccc2/C=N/NC(N)=O)c1 | – | inconclusive: 1.41 µM [inhibitor, partial curve, poor fit] |
| Cc1ccc(S(=O)(=O)c2cnc(SCC(=O)Nc3cccc(Cl)c3)nc2N)cc1C | – | inconclusive: 35.5 µM [inhibitor, single point] |
| CCC(Oc1ccccc1OC)C(=O)N1CC(=O)Nc2ccccc21 (centres undefined) | inactive: 0.909% [at 46.1 µM] | – |
| COc1ccc(C(=O)O/N=C(\N)c2ccccc2)cc1OC | – | inconclusive: 22.4 µM [inhibitor, single point] |
| N#CCCn1cc(C=C(C#N)C#N)c(-c2ccc(Cl)cc2)n1 | – | inconclusive: 22.4 µM [inhibitor, single point] |
| Cc1occc1C(=O)N1CCN(C(c2ccccc2)c2ccccc2)CC1 | – | inconclusive: 29.1 µM [inhibitor, single point] |
| COc1ccc(CCNC(=O)CSc2nnc(-c3ccc(F)cc3)o2)cc1OC | inactive: -9.56% | – |
| COc1ccc(-c2ccc(-c3noc(-c4ccccc4)n3)c(OC)n2)cc1 | inactive: -3.34% | – |
| CN1C(=O)/C(=C/c2ccc(OCc3cccc(F)c3)cc2)NC1=S | – | inconclusive: 35.5 µM [inhibitor, single point] |
| Cc1nc2ccc(C(=O)N/N=C/c3ccccc3O)cc2[nH]1 | – | inconclusive: 35.5 µM [inhibitor, single point] |
| c1cc2c3c(cccc3c1)C(N1CCCCCC1)=N2 | – | inconclusive: 35.5 µM [inhibitor, single point] |

— PubChem BioAssay AID540276 (National Center for Advancing Translational Sciences (NCATS), 2011)
